No constants are given. Whether binding was seen depends on the method and setting. Some binding calls cover weakened binding; strength is not graded here.

Protein sequences, listed by entry. Tags and fused reporters are not part of them. Residues count along the entry.
UniProt P11276, residues 33-2477: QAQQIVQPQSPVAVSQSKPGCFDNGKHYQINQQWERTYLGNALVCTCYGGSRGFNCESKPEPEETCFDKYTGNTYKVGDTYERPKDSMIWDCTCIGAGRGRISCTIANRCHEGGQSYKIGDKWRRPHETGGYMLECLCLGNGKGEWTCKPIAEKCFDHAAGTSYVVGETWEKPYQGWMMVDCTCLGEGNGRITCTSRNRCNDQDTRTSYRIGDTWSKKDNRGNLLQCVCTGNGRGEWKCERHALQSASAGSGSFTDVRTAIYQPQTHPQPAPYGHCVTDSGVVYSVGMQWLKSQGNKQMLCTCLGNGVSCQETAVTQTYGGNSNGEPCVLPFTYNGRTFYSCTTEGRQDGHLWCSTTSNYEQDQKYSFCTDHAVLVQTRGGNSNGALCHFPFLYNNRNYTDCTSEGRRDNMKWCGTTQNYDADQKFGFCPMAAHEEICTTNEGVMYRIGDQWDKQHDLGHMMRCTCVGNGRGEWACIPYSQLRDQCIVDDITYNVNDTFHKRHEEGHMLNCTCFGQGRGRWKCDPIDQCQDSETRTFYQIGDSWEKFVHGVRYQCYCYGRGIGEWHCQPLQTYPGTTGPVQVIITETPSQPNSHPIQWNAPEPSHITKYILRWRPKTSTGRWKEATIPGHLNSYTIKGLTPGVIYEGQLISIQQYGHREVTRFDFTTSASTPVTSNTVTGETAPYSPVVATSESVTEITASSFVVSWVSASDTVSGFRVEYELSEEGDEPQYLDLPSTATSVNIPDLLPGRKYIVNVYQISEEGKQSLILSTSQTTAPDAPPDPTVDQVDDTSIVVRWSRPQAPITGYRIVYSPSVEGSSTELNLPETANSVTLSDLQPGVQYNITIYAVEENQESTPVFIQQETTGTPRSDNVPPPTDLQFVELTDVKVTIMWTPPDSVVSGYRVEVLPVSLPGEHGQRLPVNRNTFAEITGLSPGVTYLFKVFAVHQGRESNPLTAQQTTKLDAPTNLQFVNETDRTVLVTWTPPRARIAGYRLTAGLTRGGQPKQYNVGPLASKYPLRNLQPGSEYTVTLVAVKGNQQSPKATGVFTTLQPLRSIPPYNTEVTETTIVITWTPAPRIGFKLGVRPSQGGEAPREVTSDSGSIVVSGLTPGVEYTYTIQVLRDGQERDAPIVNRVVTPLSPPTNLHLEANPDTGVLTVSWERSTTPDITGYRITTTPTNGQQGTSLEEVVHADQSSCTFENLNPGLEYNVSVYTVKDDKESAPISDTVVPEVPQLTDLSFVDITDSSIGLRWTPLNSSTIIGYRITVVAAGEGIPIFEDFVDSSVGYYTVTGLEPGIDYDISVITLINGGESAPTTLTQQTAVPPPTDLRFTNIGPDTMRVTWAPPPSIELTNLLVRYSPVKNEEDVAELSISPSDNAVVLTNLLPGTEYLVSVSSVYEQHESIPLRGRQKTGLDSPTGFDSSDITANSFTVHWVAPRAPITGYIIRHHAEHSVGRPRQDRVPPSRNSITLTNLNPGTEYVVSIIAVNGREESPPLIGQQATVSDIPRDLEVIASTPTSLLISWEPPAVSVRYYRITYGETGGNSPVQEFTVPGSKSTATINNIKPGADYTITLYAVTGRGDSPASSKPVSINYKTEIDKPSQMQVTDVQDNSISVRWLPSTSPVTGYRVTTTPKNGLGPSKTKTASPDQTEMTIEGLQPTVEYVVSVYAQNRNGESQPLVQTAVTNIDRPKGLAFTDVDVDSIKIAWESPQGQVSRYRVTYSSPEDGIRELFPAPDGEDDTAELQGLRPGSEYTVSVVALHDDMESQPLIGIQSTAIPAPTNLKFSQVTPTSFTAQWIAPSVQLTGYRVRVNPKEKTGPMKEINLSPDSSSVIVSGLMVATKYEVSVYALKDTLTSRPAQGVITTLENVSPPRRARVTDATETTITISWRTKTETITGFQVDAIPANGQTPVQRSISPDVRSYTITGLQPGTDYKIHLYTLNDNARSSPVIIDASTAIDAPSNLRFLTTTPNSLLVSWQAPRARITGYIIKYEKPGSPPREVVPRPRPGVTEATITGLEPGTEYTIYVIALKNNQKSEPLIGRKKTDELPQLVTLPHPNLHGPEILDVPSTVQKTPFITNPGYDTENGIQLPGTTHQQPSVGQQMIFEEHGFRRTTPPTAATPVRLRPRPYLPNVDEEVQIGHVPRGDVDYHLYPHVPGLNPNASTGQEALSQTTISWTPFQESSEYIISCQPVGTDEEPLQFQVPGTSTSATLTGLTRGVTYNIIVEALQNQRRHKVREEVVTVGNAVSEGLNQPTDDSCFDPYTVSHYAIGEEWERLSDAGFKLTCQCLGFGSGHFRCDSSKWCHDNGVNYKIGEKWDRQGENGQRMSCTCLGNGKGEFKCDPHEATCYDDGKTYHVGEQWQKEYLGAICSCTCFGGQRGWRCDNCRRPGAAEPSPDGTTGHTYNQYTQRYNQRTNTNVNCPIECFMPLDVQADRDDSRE

The target of test [1] is fibronectin (FN) (mouse) (UniProt P11276). Description: immunofluorescent co-staining of lung sections (co-localization).
Test [2] has the same target. Description: merged immunofluorescent staining for LOX and FN in pulmonary metastatic lesions (co-localization).

B1: human lysyl oxidase (hLOX), secreted by human tumor cells (MDA231) (enzyme)
chain: DDPYNPYKYSDDNPYYNYYDTYERPRPGGRYRPGYGTGYFQYGLPDLVADPYYIQASTYVQKMSMYNLRCAAEENCLASTAYRADVRDYDHRVLLRFPQRVKNQGTSDFLPSRPRYSWEWHSCHQHYHSMDEFSHYDLLDANTQRRVAEGHKASFCLEDTSCDYGYHRRFACTAHTQGLSPGCYDTYGADIDCQWIDITDVKPGNYILKVSVNPSYLVPESDYTNNVVRCDIRYTGHHAYASGCTISPY
Turning to B1, the binding entry in the test with fibronectin (FN) (mouse) [1] and in the test with fibronectin (FN) (mouse) [2] was “binds” throughout.

Source of the values: US20070225242A1, “Method and composition for treating and preventing tumor metastasis in vivo” (The Board of Trustees of the Leland Stanford Junior …, priority 2005, published 2007).
